Data from PMC11087952, “Biochemical characterization of Escherichia coli DnaC variants that alter DnaB helicase loading onto DNA” (The Journal of Biological Chemistry, 2024).

Protein sequences, listed by entry. Tags and fused reporters are not part of them. Lines headed by an entry give the natural chain unless they say otherwise; changes in a name come on top.
UniProt P0ACB0: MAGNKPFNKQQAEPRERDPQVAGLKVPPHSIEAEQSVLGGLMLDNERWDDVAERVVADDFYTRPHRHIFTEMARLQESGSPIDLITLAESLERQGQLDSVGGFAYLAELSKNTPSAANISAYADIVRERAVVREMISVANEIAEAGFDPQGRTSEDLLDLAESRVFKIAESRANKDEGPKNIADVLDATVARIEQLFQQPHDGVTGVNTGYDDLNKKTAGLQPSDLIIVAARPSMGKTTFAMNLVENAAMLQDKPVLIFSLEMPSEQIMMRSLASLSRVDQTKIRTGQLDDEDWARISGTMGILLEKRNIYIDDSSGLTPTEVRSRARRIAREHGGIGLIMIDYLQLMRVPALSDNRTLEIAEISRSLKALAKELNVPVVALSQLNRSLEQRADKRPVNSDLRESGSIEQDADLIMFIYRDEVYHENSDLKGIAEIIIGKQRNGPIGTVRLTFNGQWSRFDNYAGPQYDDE
UniProt P0AEF0: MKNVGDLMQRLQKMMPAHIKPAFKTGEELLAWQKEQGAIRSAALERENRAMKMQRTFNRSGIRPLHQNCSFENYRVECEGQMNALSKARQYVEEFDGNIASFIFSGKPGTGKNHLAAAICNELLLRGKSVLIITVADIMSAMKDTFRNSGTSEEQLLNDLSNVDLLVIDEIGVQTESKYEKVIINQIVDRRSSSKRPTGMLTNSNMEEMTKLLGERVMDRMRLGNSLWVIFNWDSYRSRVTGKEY

Target: Escherichia coli DnaB replicative helicase (wild-type) (E. coli) (UniProt P0ACB0)
Assay: SEC; 10 nmol DnaB and 12 nmol DnaC (1.2:1 DnaC:DnaB) in 20 mM Tris-HCl pH 8.5, 0.2 M NaCl, 5 mM MgCl2, 1 mM BME, 1 mM ATP; analytical size exclusion column (Increase 10/300 GL); peak fractions analysed by PAGE for DnaB and DnaC; both purified

Row | binding | Substance
1 | binds | DnaC 824 (N225Y; also printed N255Y) (from UniProt P0AEF0)
2 | binds | DnaC 1331 (A84T) (from UniProt P0AEF0)

Results are given in words; binding and its absence hold for the method and conditions named. Binding can be weak; no strength is given.
